# Data reported in the supplement of paper PMC8728848.
# The other results are listed elsewhere or left out.
# B1: PX9961Q-bfa-504-27-504 (Bacteroides fragilis) (protein)
# chain: NDWLDRKPADGIPSEDAITNYNDALTARTGMYDGIQGNSNATSYYGARMFYYGDVRADDMQARTQGMRSSSCYEMLYTVDDAPNMWNIPYNVIRRANRLIEAINEKKVTDATEAQIGKIYSEALVVRALVHFDLVRIYGMPYTADNGASLGVPVIVKPLERNDLPSRNTVAEVYTQVITDLTDAINSGYLAKDQTPGYINEWAAKALLTRVYLTKGDNENALKVAEDIITNSPYKLWTNEEYVNAWYKSNGAHTNEMIFEVVNASNDDWTDRNGIAYLLNENGYADAIVTKSFMNMLSQDPKDVRIGMVLPAQYDKDLQEEYGDAKIFINKFPADKDDVGEMRLNNLPLLRLSEVYLSAAEAAAKLGGHQDKAAKYLNEIVQRANPEAKAISEADATVERIILERRKEMIGEGQRYFDALRNNETIVRYKDEGDKGYHYSLIKESQSFDRTYFRAILPIPVDETNVNPNLRAQQNPGY
# Tests used:
# Assay in all cases: glycan array binding signal (z-score within array); higher = stronger binding
# Details in all cases: glycan notation: IUPAC condensed, linker removed
# [1] = biological target: GlcNAc(a1-4)Gal(b1-3)GlcNAc
# Method in brief: (§1)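 From the Consortium for Functional Glycomics database, 3228 arrays were curated, keeping only those whose protein sequence was available. Binding is given as a within-array Z-score averaged across arrays sharing a protein sequence and across linkers. Negative Z-scores can be read as non-binding.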
# [2] = biological target: GlcNAc(a1-4)Gal(b1-4)GalNAc
# Method in brief: as §1
# [3] = biological target: GlcNAc(a1-4)Gal(b1-4)GlcNAc
# Method in brief: as §1
# [4] = biological target: GlcNAc(a1-4)Gal(b1-4)GlcNAc(b1-3)Gal(b1-4)Glc
# Method in brief: as §1
# [5] = biological target: GlcNAc(a1-4)Gal(b1-4)GlcNAc(b1-3)Gal(b1-4)GlcNAc
# Method in brief: as §1
# [6] = biological target: GlcNAc(a1-4)Gal(b1-4)GlcNAc(b1-3)Gal(b1-4)GlcNAc(b1-3)Gal(b1-4)GlcNAc
# Method in brief: as §1
# [7] = biological target: GlcNAc(a1-4)Gal(b1-4)GlcNAc(b1-3)Gal(b1-4)[Fuc(a1-3)]GlcNAc(b1-3)Gal(b1-4)[Fuc(a1-3)]GlcNAc
# Method in brief: as §1
# [8] = biological target: GlcNAc(a1-6)Gal(b1-4)GlcNAc
# Method in brief: as §1
# [9] = biological target: GlcNAc(b1-2)Gal(b1-3)GalNAc
# Method in brief: as §1
# [10] = biological target: GlcNAc(b1-2)Man(a1-3)[GlcNAc(b1-2)Man(a1-6)]Man(b1-4)GlcNAc(b1-4)GlcNAc
# Method in brief: as §1
# [11] = biological target: GlcNAc(b1-2)Man(a1-3)[GlcNAc(b1-2)Man(a1-6)]Man(b1-4)GlcNAc(b1-4)[Fuc(a1-6)]GlcNAc
# Method in brief: as §1
# [12] = biological target: GlcNAc(b1-2)Man(a1-3)[GlcNAc(b1-4)][GlcNAc(b1-2)Man(a1-6)]Man(b1-4)GlcNAc(b1-4)GlcNAc
# Method in brief: as §1
# [13] = biological target: GlcNAc(b1-2)Man(a1-3)[GlcNAc(b1-4)][GlcNAc(b1-2)Man(a1-6)]Man(b1-4)GlcNAc(b1-4)[Fuc(a1-6)]GlcNAc
# Method in brief: as §1
# [14] = biological target: GlcNAc(b1-2)[GlcNAc(b1-4)]Man(a1-3)[GlcNAc(b1-2)Man(a1-6)]Man(b1-4)GlcNAc(b1-4)GlcNAc
# Method in brief: as §1
# [15] = biological target: GlcNAc(b1-2)[GlcNAc(b1-4)]Man(a1-3)[GlcNAc(b1-4)][GlcNAc(b1-2)Man(a1-6)]Man(b1-4)GlcNAc(b1-4)GlcNAc
# Method in brief: as §1
# [16] = biological target: GlcNAc(b1-2)[GlcNAc(b1-4)]Man(a1-3)[GlcNAc(b1-4)][GlcNAc(b1-2)[GlcNAc(b1-6)]Man(a1-6)]Man(b1-4)GlcNAc(b1-4)GlcNAc
# Method in brief: as §1
# [17] = biological target: GlcNAc(b1-2)[GlcNAc(b1-4)]Man(a1-3)[GlcNAc(b1-4)][GlcNAc(b1-2)[GlcNAc(b1-6)]Man(a1-6)]Man(b1-4)GlcNAc(b1-4)[Fuc(a1-6)]GlcNAc
# Method in brief: as §1
# [18] = biological target: GlcNAc(b1-2)[GlcNAc(b1-6)]Man(a1-6)[GlcNAc(b1-2)Man(a1-3)]Man(b1-4)GlcNAc(b1-4)GlcNAc
# Method in brief: as §1
# [19] = biological target: GlcNAc(b1-2)[GlcNAc(b1-6)]Man(a1-6)[GlcNAc(b1-2)Man(a1-3)]Man(b1-4)GlcNAc(b1-4)[Fuc(a1-6)]GlcNAc
# Method in brief: as §1
# [20] = biological target: GlcNAc(b1-2)[GlcNAc(b1-6)]Man(a1-6)[GlcNAc(b1-4)][GlcNAc(b1-2)Man(a1-3)]Man(b1-4)GlcNAc(b1-4)GlcNAc
# Method in brief: as §1
# GlcNAc(b1-3)Fuc = biological target: GlcNAc(b1-3)Fuc
# Method in brief: as §1
# GlcNAc(b1-3)Gal = biological target: GlcNAc(b1-3)Gal
# Method in brief: as §1
# [21] = biological target: GlcNAc(b1-3)Gal(b1-3)GalNAc
# Method in brief: as §1
# GlcNAc(b1-3)Gal(b1-4)Glc = biological target: GlcNAc(b1-3)Gal(b1-4)Glc
# Method in brief: as §1
# [22] = biological target: GlcNAc(b1-3)Gal(b1-4)GlcNAc
# Method in brief: as §1
# [23] = biological target: GlcNAc(b1-3)Gal(b1-4)GlcNAc(b1-2)Man(a1-3)[GlcNAc(b1-3)Gal(b1-4)GlcNAc(b1-2)Man(a1-6)]Man(b1-4)GlcNAc(b1-4)GlcNAc
# Method in brief: as §1
# [24] = biological target: GlcNAc(b1-3)Gal(b1-4)GlcNAc(b1-2)Man(a1-3)[GlcNAc(b1-3)Gal(b1-4)GlcNAc(b1-2)Man(a1-6)]Man(b1-4)GlcNAc(b1-4)[Fuc(a1-6)]GlcNAc
# Method in brief: as §1
# [25] = biological target: GlcNAc(b1-3)Gal(b1-4)GlcNAc(b1-2)[GlcNAc(b1-3)Gal(b1-4)GlcNAc(b1-6)]Man(a1-6)[GlcNAc(b1-3)Gal(b1-4)GlcNAc(b1-2)Man(a1-3)]Man(b1-4)GlcNAc(b1-4)GlcNAc
# Method in brief: as §1
# [26] = biological target: GlcNAc(b1-3)Gal(b1-4)GlcNAc(b1-3)Gal(b1-4)GlcNAc
# Method in brief: as §1
# [27] = biological target: GlcNAc(b1-3)Gal(b1-4)GlcNAc(b1-3)Gal(b1-4)GlcNAc(b1-2)Man(a1-3)[GlcNAc(b1-3)Gal(b1-4)GlcNAc(b1-3)Gal(b1-4)GlcNAc(b1-2)Man(a1-6)]Man(b1-4)GlcNAc(b1-4)GlcNAc
# Method in brief: as §1
# [28] = biological target: GlcNAc(b1-3)Gal(b1-4)GlcNAc(b1-3)Gal(b1-4)GlcNAc(b1-2)Man(a1-3)[GlcNAc(b1-3)Gal(b1-4)GlcNAc(b1-3)Gal(b1-4)GlcNAc(b1-2)Man(a1-6)]Man(b1-4)GlcNAc(b1-4)[Fuc(a1-6)]GlcNAc
# Method in brief: as §1
# [29] = biological target: GlcNAc(b1-3)Gal(b1-4)GlcNAc(b1-3)Gal(b1-4)GlcNAc(b1-2)[GlcNAc(b1-3)Gal(b1-4)GlcNAc(b1-3)Gal(b1-4)GlcNAc(b1-6)]Man(a1-6)[GlcNAc(b1-3)Gal(b1-4)GlcNAc(b1-3)Gal(b1-4)GlcNAc(b1-2)Man(a1-3)]Man(b1-4)GlcNAc(b1-4)[Fuc(a1-6)]GlcNAc
# Method in brief: as §1
# [30] = biological target: GlcNAc(b1-3)Gal(b1-4)GlcNAc(b1-3)Gal(b1-4)GlcNAc(b1-3)Gal(b1-4)GlcNAc(b1-2)Man(a1-3)[GlcNAc(b1-3)Gal(b1-4)GlcNAc(b1-3)Gal(b1-4)GlcNAc(b1-3)Gal(b1-4)GlcNAc(b1-2)Man(a1-6)]Man(b1-4)GlcNAc(b1-4)GlcNAc
# Method in brief: as §1
# [31] = biological target: GlcNAc(b1-3)Gal(b1-4)GlcNAc(b1-3)Gal(b1-4)GlcNAc(b1-3)Gal(b1-4)GlcNAc(b1-2)Man(a1-3)[GlcNAc(b1-3)Gal(b1-4)GlcNAc(b1-3)Gal(b1-4)GlcNAc(b1-3)Gal(b1-4)GlcNAc(b1-2)Man(a1-6)]Man(b1-4)GlcNAc(b1-4)[Fuc(a1-6)]GlcNAc
# Method in brief: as §1
# [32] = biological target: GlcNAc(b1-3)Gal(b1-4)GlcNAc(b1-3)Gal(b1-4)GlcNAc(b1-3)Gal(b1-4)GlcNAc(b1-2)[GlcNAc(b1-3)Gal(b1-4)GlcNAc(b1-3)Gal(b1-4)GlcNAc(b1-3)Gal(b1-4)GlcNAc(b1-6)]Man(a1-6)[GlcNAc(b1-3)Gal(b1-4)GlcNAc(b1-3)Gal(b1-4)GlcNAc(b1-3)Gal(b1-4)GlcNAc(b1-2)Man(a1-3)]Man(b1-4)GlcNAc(b1-4)[Fuc(a1-6)]GlcNAc
# Method in brief: as §1
# [33] = biological target: GlcNAc(b1-3)Gal(b1-4)GlcNAc(b1-3)Gal(b1-4)GlcNAc(b1-3)Gal(b1-4)GlcNAc(b1-3)Gal(b1-4)GlcNAc(b1-2)Man(a1-3)[GlcNAc(b1-3)Gal(b1-4)GlcNAc(b1-3)Gal(b1-4)GlcNAc(b1-3)Gal(b1-4)GlcNAc(b1-3)Gal(b1-4)GlcNAc(b1-2)Man(a1-6)]Man(b1-4)GlcNAc(b1-4)GlcNAc
# Method in brief: as §1
# [34] = biological target: GlcNAc(b1-3)Gal(b1-4)GlcNAc(b1-3)Gal(b1-4)GlcNAc(b1-3)Gal(b1-4)GlcNAc(b1-3)Gal(b1-4)GlcNAc(b1-2)Man(a1-3)[GlcNAc(b1-3)Gal(b1-4)GlcNAc(b1-3)Gal(b1-4)GlcNAc(b1-3)Gal(b1-4)GlcNAc(b1-3)Gal(b1-4)GlcNAc(b1-2)Man(a1-6)]Man(b1-4)GlcNAc(b1-4)[Fuc(a1-6)]GlcNAc
# Method in brief: as §1
# [35] = biological target: GlcNAc(b1-3)Gal(b1-4)GlcNAc(b1-3)Gal(b1-4)GlcNAc(b1-3)Gal(b1-4)GlcNAc(b1-3)Gal(b1-4)GlcNAc(b1-2)[GlcNAc(b1-3)Gal(b1-4)GlcNAc(b1-3)Gal(b1-4)GlcNAc(b1-3)Gal(b1-4)GlcNAc(b1-3)Gal(b1-4)GlcNAc(b1-6)]Man(a1-6)[GlcNAc(b1-3)Gal(b1-4)GlcNAc(b1-3)Gal(b1-4)GlcNAc(b1-3)Gal(b1-4)GlcNAc(b1-3)Gal(b1-4)GlcNAc(b1-2)Man(a1-3)]Man(b1-4)GlcNAc(b1-4)[Fuc(a1-6)]GlcNAc
# Method in brief: as §1
binder,measurement,setting,value
B1,glycan array binding signal (z-score),[1],-0.29
same,glycan array binding signal (z-score),[2],0.025
same,glycan array binding signal (z-score),[3],-0.144
same,glycan array binding signal (z-score),[4],-0.143
same,glycan array binding signal (z-score),[5],-0.925
same,glycan array binding signal (z-score),[6],-0.76
same,glycan array binding signal (z-score),[7],0.692
same,glycan array binding signal (z-score),[8],-0.266
same,glycan array binding signal (z-score),[9],-0.108
same,glycan array binding signal (z-score),[10],-0.408
same,glycan array binding signal (z-score),[11],0.213
same,glycan array binding signal (z-score),[12],-0.101
same,glycan array binding signal (z-score),[13],0.694
same,glycan array binding signal (z-score),[14],-0.957
same,glycan array binding signal (z-score),[15],-0.344
same,glycan array binding signal (z-score),[16],-0.672
same,glycan array binding signal (z-score),[17],-0.492
same,glycan array binding signal (z-score),[18],-0.225
same,glycan array binding signal (z-score),[19],0.418
same,glycan array binding signal (z-score),[20],-0.107
same,glycan array binding signal (z-score),GlcNAc(b1-3)Fuc,-0.326
same,glycan array binding signal (z-score),GlcNAc(b1-3)Gal,-0.232
same,glycan array binding signal (z-score),[21],0.085
same,glycan array binding signal (z-score),GlcNAc(b1-3)Gal(b1-4)Glc,-0.949
same,glycan array binding signal (z-score),[22],-0.27
same,glycan array binding signal (z-score),[23],0.607
same,glycan array binding signal (z-score),[24],-0.621
same,glycan array binding signal (z-score),[25],0.617
same,glycan array binding signal (z-score),[26],-0.184
same,glycan array binding signal (z-score),[27],0.656
same,glycan array binding signal (z-score),[28],0.781
same,glycan array binding signal (z-score),[29],-0.347
same,glycan array binding signal (z-score),[30],-0.679
same,glycan array binding signal (z-score),[31],2.65
same,glycan array binding signal (z-score),[32],0.958
same,glycan array binding signal (z-score),[33],-0.236
same,glycan array binding signal (z-score),[34],0.345
same,glycan array binding signal (z-score),[35],0.482

# In another format: results already given
binder	measurement	setting	value
B1	glycan array binding signal (z-score)	[7]	0.692
same	glycan array binding signal (z-score)	[14]	-0.957
same	glycan array binding signal (z-score)	[23]	0.607
